From patent US7119077 come the findings set out here.

Chains of the proteins cited; added tags and fusions are not shown. Where a name states a change or a piece, a line headed by the entry shows the natural chain unless it says otherwise. Chains listed by the source or under a name are the forms on record and can include a tag or linker.
UniProt P37230: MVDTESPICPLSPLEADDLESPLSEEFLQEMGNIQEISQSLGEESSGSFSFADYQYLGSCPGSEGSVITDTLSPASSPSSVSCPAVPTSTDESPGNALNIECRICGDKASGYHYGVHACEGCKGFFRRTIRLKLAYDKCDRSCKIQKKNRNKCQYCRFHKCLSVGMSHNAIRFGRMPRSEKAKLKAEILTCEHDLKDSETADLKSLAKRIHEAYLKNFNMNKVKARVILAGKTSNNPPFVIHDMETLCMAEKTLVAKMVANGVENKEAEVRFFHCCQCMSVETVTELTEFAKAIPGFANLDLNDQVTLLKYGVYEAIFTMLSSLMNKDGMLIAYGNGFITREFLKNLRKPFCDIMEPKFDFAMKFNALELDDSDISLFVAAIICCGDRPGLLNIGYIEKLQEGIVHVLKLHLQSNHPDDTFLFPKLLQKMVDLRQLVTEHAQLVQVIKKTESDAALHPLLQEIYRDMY
EcR/usp complex (Schneider S2 cell extract) (Drosophila melanogaster), one chain, as listed by the source, chain 2 of 2: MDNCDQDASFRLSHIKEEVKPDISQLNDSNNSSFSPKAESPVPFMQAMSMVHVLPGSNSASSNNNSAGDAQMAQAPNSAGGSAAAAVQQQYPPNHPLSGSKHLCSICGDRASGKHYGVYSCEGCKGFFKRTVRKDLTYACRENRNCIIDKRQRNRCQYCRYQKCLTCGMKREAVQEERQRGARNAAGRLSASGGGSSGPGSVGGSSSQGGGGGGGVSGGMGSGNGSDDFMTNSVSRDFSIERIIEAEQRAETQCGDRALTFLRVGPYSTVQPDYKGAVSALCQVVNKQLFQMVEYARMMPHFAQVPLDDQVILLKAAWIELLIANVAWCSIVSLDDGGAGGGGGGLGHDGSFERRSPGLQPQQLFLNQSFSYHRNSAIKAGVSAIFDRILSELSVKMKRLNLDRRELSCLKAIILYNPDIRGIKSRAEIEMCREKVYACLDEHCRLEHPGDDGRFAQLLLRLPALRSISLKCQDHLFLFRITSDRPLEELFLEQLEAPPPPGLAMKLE
EcR/usp complex (Schneider S2 cell extract) (Drosophila melanogaster), one chain, as listed by the source, chain 1 of 2: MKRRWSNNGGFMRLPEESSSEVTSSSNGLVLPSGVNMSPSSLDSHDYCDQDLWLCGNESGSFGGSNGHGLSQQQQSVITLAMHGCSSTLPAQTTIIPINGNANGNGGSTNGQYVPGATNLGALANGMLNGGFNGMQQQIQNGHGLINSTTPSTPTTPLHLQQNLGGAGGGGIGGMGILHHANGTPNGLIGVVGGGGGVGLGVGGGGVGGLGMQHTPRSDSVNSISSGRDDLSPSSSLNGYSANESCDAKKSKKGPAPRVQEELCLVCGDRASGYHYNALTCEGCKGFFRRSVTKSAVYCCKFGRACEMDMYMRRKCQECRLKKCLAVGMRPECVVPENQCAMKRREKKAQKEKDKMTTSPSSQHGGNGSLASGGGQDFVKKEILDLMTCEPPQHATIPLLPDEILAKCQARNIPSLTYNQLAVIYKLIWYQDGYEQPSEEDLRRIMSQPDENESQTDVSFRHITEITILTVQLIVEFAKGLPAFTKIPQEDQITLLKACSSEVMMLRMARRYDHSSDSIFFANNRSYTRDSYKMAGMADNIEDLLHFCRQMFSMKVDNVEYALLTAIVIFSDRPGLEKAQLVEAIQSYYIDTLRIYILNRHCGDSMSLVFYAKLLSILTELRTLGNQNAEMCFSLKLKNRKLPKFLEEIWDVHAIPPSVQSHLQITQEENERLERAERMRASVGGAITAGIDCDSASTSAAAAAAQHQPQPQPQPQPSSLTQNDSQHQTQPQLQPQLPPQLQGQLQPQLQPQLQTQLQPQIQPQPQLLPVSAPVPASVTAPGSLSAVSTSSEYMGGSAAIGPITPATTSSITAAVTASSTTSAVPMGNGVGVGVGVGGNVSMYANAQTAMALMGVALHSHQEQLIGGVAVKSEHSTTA
RARα + usp of S2 or embryo extract (Homo sapiens / Drosophila melanogaster), one chain, as listed by the source, chain 1 of 2: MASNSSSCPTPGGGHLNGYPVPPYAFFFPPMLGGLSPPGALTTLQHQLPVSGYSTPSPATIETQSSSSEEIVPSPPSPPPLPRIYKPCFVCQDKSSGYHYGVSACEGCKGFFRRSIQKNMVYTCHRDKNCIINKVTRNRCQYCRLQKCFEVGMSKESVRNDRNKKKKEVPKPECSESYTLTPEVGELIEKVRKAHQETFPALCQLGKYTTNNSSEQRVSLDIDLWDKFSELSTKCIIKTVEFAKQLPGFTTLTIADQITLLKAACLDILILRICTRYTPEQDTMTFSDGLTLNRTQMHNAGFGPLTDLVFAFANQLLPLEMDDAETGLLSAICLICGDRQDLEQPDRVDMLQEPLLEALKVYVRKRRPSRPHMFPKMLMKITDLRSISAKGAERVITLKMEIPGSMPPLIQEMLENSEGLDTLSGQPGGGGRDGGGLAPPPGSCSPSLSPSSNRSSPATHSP

For some of these results: Weaker means in comparison with the reference protein, sequence or condition of that experiment. For some of these results: Protein sequences can lack the tags named with them. For some of these results: Results from cells or extracts need not show a direct contact. For some of these results: The exact form of at least one protein or probe is not confirmed.

For data set [1], the system named is GEcR (GR N-terminal domain-EcR fusion) + usp EcR V258R,Q259P,E260P,P331L (Drosophila melanogaster). Put plainly: activity in cells. The note with it: CAT induction by 20-OH-ecdysone, CV1 cells; none with GEcR alone; protein in cells.
Data set [2] addresses PPAR (rat) (Rattus norvegicus) (UniProt P37230). Put plainly: EMSA. Conditions: receptor alone, very little or no binding; protein translated in vitro; label: 32P. In general terms: Mobility shift assays separate free from complexed probe on a gel.
Data set [3] relates to EcR/usp complex (Schneider S2 cell extract) (Drosophila melanogaster). Put plainly: EMSA. The note with it: S2 extract; major complex supershifted by usp antibody; protein in an extract; label: 32P.
Data set [4] has as its system EcR/usp complexes (embryo extract) (Drosophila melanogaster). The data set is described as follows: EMSA. The note with it: embryo extract 5-10 ug; usp antibody supershift; protein in an extract; label: 32P.
For data set [5], the target named is T1, TRβ (human) (Homo sapiens) (UniProt P10828).
T1 sequence (looked up, limits assumed): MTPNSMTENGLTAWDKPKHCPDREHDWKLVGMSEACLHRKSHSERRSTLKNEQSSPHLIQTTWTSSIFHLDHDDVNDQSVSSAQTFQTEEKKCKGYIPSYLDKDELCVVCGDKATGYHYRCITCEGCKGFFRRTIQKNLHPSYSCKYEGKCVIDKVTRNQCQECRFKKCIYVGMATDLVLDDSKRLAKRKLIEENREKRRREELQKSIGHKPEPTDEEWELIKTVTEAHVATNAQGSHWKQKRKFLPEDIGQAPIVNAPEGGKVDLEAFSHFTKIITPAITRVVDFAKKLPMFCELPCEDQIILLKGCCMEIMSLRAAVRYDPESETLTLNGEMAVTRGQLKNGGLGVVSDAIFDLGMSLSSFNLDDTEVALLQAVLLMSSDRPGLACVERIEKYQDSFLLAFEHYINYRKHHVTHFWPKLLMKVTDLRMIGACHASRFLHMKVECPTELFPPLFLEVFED
Put plainly: EMSA. Conditions: receptor alone, very little or no binding; protein translated in vitro; label: 32P.

In data set [6] the test system is RARα + usp of S2 or embryo extract (Homo sapiens / Drosophila melanogaster). The data set is described as follows: EMSA. Conditions: extract dramatically enhances binding; supershifted by usp antibody; protein in an extract; protein details: RARα in vitro translated, usp from fly extract; label: 32P.
In data set [7] the target is T2, VDR (human) (Homo sapiens) (UniProt P11473).
T2 sequence (looked up, limits assumed): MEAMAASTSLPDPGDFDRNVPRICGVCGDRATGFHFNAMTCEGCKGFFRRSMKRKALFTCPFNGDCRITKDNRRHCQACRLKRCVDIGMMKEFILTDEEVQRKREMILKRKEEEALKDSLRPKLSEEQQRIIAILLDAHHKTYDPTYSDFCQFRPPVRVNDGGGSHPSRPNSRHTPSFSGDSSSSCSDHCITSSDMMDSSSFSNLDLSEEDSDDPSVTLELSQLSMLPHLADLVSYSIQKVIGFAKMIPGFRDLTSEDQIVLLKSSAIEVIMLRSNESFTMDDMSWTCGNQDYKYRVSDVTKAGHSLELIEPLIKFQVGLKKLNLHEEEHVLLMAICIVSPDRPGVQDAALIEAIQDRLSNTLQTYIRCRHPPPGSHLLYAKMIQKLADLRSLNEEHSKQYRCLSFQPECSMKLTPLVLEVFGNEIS
Put plainly: EMSA. The note with it: receptor alone, very little or no binding; protein translated in vitro; label: 32P.

In the case of “AGCTCGATGGACAAGTGCATTGAACCCTTGAGCTACCTGTTCACGTAACTTGGGAACTTCGA (double strand) [ΔMTV-EcRE5-CAT reporter EcRE oligonucleotide (5 copies)]”, the “activity on this sequence” value in data set [1] is given as “active”.

Consider “AGGACAAAGGTCA (double strand) [AOX-PPARE (DR1)]”, for which the binding result in data set [2] is reported as “binds more weakly”.

With “ATTGGACAAGTGCATTGAACCCTTGTCTCT (double strand) [hsp27-EcRE]”, the binding result in data set [3] and in data set [4] was “binds” throughout.

On to “GGGTCATTTCAGGTCC (double strand) [MLV-TRE (DR4)]”, for which, in data set [5], the binding result is “binds more weakly”.

As for “GGTTCACCGAAAGTTCA (double strand) [βRARE (DR5)]”, in data set [6], the binding result is on record as “binds”.

In the case of “GGTTCACGAGGTTCA (double strand) [SPP1-VDRE (DR3, printed SSP1)]”, the binding result in data set [7] is listed as “binds more weakly”.
